We go through 11 targets from the supplement of paper PMC7666118.

Chains of the proteins cited; added tags and fusions are not shown. Lines headed by an entry give the natural chain unless they say otherwise; changes in a name come on top.
UniProt P13798: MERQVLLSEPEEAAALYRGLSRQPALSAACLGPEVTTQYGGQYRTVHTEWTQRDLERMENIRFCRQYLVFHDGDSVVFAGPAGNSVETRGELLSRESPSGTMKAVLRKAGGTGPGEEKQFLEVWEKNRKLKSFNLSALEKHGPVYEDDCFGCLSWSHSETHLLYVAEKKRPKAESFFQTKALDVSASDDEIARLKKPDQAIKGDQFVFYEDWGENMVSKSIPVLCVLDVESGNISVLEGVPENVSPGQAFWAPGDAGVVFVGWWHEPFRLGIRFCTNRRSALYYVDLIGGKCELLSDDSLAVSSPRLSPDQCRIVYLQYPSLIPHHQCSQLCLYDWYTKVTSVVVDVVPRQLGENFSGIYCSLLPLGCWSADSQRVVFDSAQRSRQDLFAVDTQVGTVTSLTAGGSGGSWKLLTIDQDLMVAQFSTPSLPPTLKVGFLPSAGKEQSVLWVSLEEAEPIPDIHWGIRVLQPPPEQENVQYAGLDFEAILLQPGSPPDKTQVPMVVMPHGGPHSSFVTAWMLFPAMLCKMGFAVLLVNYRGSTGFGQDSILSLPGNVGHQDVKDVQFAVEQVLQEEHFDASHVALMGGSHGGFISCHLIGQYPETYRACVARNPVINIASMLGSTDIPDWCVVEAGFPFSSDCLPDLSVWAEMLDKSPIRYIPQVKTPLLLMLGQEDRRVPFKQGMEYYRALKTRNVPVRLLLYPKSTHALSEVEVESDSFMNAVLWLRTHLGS
UniProt O00468: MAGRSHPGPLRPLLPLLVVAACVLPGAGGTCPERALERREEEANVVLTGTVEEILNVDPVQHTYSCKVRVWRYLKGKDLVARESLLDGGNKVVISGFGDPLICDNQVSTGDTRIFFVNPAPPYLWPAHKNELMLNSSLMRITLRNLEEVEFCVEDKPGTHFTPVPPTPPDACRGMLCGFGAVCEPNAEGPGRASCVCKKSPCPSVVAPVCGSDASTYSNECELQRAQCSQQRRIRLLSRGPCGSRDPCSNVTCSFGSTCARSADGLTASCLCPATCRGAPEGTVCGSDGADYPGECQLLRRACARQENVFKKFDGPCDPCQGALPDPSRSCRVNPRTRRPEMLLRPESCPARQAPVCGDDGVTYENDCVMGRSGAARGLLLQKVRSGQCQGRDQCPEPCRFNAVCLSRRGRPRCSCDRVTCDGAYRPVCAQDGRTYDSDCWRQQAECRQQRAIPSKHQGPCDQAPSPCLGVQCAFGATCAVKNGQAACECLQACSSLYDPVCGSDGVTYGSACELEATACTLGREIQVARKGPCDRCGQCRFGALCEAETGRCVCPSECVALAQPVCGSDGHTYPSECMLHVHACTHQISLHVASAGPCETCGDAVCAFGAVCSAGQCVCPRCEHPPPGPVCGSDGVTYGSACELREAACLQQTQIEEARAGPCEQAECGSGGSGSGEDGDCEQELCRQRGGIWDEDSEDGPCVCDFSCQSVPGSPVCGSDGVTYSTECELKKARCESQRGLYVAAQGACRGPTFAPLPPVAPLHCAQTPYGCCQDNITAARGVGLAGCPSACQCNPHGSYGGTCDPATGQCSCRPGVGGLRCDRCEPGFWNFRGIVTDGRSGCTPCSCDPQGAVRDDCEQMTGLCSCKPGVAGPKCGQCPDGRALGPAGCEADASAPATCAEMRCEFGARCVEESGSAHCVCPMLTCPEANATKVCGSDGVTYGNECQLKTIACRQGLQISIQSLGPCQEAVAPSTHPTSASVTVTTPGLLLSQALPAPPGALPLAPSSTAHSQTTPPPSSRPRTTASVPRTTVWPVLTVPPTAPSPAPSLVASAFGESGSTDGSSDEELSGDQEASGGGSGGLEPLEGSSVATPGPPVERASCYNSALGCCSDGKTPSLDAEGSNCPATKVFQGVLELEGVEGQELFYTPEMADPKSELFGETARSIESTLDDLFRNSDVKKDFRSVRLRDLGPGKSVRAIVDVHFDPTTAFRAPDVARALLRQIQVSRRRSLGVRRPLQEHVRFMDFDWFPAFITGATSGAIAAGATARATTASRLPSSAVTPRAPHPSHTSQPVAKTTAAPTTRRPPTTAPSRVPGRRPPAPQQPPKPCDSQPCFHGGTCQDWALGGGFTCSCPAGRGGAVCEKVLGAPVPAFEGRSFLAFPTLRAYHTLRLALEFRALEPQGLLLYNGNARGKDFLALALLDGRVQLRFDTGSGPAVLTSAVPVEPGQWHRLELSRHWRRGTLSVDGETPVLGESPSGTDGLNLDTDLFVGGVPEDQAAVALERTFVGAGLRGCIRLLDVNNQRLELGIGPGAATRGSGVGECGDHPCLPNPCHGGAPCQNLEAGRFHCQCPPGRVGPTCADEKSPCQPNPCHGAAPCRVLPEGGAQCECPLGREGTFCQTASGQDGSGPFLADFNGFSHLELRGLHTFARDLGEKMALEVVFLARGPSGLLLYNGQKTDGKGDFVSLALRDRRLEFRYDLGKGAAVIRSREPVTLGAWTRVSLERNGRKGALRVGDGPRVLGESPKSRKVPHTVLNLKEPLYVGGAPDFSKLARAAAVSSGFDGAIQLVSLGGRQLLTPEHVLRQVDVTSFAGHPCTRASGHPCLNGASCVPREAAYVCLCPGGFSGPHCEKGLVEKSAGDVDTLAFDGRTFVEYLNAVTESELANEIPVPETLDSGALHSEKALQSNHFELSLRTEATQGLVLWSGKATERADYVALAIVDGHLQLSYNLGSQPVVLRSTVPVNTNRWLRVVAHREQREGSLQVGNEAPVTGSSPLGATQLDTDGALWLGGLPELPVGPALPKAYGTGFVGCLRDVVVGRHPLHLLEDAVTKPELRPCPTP
UniProt Q92572: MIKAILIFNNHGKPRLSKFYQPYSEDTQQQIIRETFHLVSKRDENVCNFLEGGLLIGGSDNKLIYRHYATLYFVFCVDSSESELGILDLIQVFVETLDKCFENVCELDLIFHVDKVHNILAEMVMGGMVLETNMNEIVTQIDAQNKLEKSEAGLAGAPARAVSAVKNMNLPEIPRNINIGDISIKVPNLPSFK
UniProt Q99490: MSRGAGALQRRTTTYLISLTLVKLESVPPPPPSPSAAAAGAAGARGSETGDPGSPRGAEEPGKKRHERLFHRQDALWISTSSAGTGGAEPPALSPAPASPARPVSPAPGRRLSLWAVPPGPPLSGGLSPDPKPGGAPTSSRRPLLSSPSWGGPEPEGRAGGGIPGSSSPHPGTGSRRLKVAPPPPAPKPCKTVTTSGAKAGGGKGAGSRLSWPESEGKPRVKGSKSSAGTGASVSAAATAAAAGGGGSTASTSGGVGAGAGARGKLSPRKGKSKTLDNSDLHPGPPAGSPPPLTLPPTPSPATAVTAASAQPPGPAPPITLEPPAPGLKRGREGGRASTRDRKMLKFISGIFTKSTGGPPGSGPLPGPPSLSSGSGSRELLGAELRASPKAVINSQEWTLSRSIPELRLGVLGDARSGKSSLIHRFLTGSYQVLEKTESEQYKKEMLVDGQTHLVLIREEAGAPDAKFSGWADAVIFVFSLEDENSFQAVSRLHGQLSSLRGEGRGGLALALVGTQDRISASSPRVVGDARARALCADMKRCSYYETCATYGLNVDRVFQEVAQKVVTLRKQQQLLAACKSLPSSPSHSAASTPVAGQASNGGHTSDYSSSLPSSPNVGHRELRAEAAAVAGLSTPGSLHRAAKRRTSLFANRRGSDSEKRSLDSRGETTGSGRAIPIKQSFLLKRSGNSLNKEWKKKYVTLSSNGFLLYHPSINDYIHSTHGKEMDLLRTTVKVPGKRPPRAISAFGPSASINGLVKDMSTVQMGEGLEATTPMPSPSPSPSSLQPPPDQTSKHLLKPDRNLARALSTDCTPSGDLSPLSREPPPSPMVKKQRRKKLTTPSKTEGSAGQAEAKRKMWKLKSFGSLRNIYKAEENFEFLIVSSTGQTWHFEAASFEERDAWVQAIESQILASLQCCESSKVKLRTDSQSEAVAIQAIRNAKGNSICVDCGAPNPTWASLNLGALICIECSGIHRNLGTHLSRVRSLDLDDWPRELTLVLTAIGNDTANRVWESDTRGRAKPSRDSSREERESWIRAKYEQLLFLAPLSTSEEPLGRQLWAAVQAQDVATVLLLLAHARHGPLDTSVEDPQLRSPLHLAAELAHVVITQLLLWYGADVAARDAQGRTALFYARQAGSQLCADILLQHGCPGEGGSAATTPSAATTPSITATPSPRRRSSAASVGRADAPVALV
UniProt Q92624: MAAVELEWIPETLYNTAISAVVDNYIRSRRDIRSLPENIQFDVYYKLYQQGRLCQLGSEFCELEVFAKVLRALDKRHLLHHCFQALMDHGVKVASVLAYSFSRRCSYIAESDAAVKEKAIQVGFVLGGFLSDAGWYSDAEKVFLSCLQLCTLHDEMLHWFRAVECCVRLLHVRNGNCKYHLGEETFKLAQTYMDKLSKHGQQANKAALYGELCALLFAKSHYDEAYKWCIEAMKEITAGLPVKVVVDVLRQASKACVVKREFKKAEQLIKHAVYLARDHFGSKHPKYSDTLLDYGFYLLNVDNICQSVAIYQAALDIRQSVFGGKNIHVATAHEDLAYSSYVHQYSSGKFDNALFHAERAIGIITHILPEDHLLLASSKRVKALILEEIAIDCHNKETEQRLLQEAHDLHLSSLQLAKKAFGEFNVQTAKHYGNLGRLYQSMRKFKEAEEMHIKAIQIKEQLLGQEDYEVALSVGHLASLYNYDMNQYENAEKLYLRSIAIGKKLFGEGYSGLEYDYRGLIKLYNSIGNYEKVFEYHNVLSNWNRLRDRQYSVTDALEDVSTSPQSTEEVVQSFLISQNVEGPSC
UniProt P20292: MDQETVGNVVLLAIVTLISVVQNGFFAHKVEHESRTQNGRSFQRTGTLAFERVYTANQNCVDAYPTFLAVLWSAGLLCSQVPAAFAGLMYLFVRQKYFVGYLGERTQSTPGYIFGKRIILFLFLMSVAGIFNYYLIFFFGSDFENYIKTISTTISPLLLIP
UniProt Q8N2Z9: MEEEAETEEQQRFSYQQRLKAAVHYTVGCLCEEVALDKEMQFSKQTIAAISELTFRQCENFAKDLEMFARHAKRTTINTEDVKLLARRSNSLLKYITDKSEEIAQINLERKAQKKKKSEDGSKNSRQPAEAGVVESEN
UniProt Q96BI3, whole entry: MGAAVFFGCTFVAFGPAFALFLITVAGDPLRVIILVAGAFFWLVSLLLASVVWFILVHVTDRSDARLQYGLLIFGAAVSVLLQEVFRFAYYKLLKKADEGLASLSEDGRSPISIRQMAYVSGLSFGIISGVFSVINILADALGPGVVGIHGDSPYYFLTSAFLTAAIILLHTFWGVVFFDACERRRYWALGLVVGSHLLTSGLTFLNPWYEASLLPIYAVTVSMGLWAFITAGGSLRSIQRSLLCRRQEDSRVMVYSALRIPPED
UniProt P58335, whole entry: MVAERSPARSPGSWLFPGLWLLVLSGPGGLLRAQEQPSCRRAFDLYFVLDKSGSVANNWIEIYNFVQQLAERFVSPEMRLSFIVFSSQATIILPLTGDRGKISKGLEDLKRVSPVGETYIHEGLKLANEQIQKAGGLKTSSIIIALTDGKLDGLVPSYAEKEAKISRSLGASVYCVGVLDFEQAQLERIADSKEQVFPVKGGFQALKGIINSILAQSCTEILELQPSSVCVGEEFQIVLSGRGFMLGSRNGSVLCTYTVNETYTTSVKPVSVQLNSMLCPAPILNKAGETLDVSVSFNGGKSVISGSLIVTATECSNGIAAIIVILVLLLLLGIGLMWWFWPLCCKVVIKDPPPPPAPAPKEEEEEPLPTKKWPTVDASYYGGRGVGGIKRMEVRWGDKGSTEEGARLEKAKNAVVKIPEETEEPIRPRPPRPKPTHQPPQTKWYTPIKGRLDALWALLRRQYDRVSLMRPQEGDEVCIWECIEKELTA
UniProt Q9Y305: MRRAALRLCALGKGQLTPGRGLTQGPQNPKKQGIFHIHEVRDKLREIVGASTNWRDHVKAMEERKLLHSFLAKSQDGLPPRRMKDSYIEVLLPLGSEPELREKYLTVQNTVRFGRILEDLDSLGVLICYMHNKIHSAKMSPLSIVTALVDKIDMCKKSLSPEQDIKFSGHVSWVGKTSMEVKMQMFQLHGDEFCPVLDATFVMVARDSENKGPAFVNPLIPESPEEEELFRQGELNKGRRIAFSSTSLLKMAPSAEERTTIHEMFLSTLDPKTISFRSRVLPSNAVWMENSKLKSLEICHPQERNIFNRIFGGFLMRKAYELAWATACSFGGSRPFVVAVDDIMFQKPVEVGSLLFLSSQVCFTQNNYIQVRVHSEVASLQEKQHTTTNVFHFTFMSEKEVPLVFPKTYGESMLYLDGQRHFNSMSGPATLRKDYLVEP

The list shows a part of the results.

Compound in the test: COc1ccc(Cn2ccc3ccc(C(=O)NO)cc32)cc1
As to the kind of experiment: dose-dependent thermal stabilisation call (2D-TPP, DLPTP, 10% FDR) (binary (1 = stabilised)); higher = stabilised by the compound. To be noted: system: HL-60 intact cells; concentration range 0.04-10 µM.
Regarding APEH (UniProt P13798), the “dose-dependent thermal stabilisation call” value is inactive: 0.

On to AGRN (UniProt O00468), for which the “dose-dependent thermal stabilisation call” value is inactive: 0.

For the target AP3S1 (UniProt Q92572), the “dose-dependent thermal stabilisation call” value was inactive: 0.

AGAP2 (UniProt Q99490): the “dose-dependent thermal stabilisation call” value is inactive: 0.

Take APPBP2 (UniProt Q92624): the “dose-dependent thermal stabilisation call” value was inactive: 0.

Regarding ALOX5AP (UniProt P20292), the “dose-dependent thermal stabilisation call” value is active: 1.

Take AHNAK (UniProt Q09666): the “dose-dependent thermal stabilisation call” value was inactive: 0.

Regarding APITD1 (UniProt Q8N2Z9), the “dose-dependent thermal stabilisation call” value was inactive: 0.

As to APH1A (UniProt Q96BI3), the “dose-dependent thermal stabilisation call” value was inactive: 0.

For the target ANTXR2 (UniProt P58335), the “dose-dependent thermal stabilisation call” value was inactive: 0.

Take ACOT9 (UniProt Q9Y305): the “dose-dependent thermal stabilisation call” value was inactive: 0.
